# The other results are listed elsewhere or left out.
# B1: Spy 2007 (Streptococcus pyogenes), Q99XV3 (protein)
# chain: MKKGFFLMAMVVSLVMIAGCDKSANPKQPTQGMSVVTSFYPMYAMTKEVSGDLNDVRMIQSGAGIHSFEPSVNDVAAIYDADLFVYHSHTLEAWARDLDPNLKKSKVDVFEASKPLTLDRVKGLEDMEVTQGIDPATLYDPHTWTDPVLAGEEAVNIAKELGRLDPKHKDSYTKNAKAFKKEAEQLTEEYTQKFKKVRSKTFVTQHTAFSYLAKRFGLKQLGISGISPEQEPSPRQLKEIQDFVKEYNVKTIFAEDNVNPKIAHAIAKSTGAKVKTLSPLEAAPSGNKTYLENLRANLEVLYQQLK
# How the values were obtained:
# Experiment in all cases: glycan array binding signal (z-score within array); higher = stronger binding
# Conditions in all cases: glycan notation: IUPAC condensed, linker removed
# [1] = biological target: Gal(b1-4)GlcNAc(b1-3)[GlcNAc(b1-6)]Gal(b1-4)GlcNAc
# In short: (§1)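 The Consortium for Functional Glycomics database supplied 3228 glycan arrays, of which those lacking an available protein sequence were dropped. The binding signal, a within-array Z-score, was averaged across arrays of the same protein sequence and across linkers. Negative scores can be read as non-binding.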
# [2] = biological target: Gal(b1-4)GlcNAc(b1-6)Gal(b1-4)GlcNAc
# In short: as §1
# [3] = biological target: Gal(b1-4)GlcNAc(b1-6)Gal(b1-4)GlcNAc(b1-6)GalNAc
# In short: as §1
# [4] = biological target: Gal(b1-4)GlcNAc(b1-6)GalNAc
# In short: as §1
# [5] = biological target: Gal(b1-4)GlcNAc(b1-6)[Gal(b1-3)]GalNAc
# In short: as §1
# [6] = biological target: Gal3S(b1-3)GalNAc
# In short: as §1
# [7] = biological target: Gal3S(b1-3)GlcNAc
# In short: as §1
# [8] = biological target: Gal3S(b1-3)[Fuc(a1-4)]GlcNAc
# In short: as §1
# [9] = biological target: Gal3S(b1-4)Glc
# In short: as §1
# [10] = biological target: Gal3S(b1-4)Glc6S
# In short: as §1
# [11] = biological target: Gal3S(b1-4)GlcNAc
# In short: as §1
# [12] = biological target: Gal3S(b1-4)GlcNAc6S
# In short: as §1
# [13] = biological target: Gal3S(b1-4)[Fuc(a1-3)]Glc
# In short: as §1
# [14] = biological target: Gal3S4S(b1-4)GlcNAc
# In short: as §1
# [15] = biological target: Gal3S6S(b1-4)GlcNAc
# In short: as §1
# [16] = biological target: Gal3S6S(b1-4)GlcNAc6S
# In short: as §1
# [17] = biological target: Gal4S(b1-4)GlcNAc
# In short: as §1
# [18] = biological target: Gal4S6S(b1-4)GlcNAc
# In short: as §1
# [19] = biological target: Gal6S(b1-4)Glc
# In short: as §1
# [20] = biological target: Gal6S(b1-4)Glc6S
# In short: as §1
# [21] = biological target: Gal6S(b1-4)GlcNAc
# In short: as §1
# [22] = biological target: Gal6S(b1-4)GlcNAc6S
# In short: as §1
# [23] = biological target: GalNAc(a1-3)Gal
# In short: as §1
# [24] = biological target: GalNAc(a1-3)GalNAc
# In short: as §1
# [25] = biological target: GalNAc(b1-3)Gal
# In short: as §1
# [26] = biological target: GalNAc(b1-3)Gal(a1-4)Gal(b1-4)GlcNAc
# In short: as §1
# [27] = biological target: GalNAc(b1-3)Gal(a1-4)Gal(b1-4)GlcNAc(b1-3)Gal(b1-4)Glc
# In short: as §1
# [28] = biological target: GalNAc(b1-3)GalNAc
# In short: as §1
# [29] = biological target: GalNAc(b1-4)GlcNAc
# In short: as §1
# [30] = biological target: GalNAc(b1-4)GlcNAc(b1-2)Man(a1-3)[GalNAc(b1-4)GlcNAc(b1-2)Man(a1-6)]Man(b1-4)GlcNAc(b1-4)GlcNAc
# In short: as §1
# [31] = biological target: Glc(a1-4)Glc
# In short: as §1
# [32] = biological target: Glc(a1-6)Glc(a1-6)Glc
# In short: as §1
# [33] = biological target: Glc(b1-4)Glc
# In short: as §1
# [34] = biological target: Glc(b1-6)Glc
# In short: as §1
# [35] = biological target: GlcA(b1-3)Gal
# In short: as §1
# [36] = biological target: GlcA(b1-3)GlcNAc
# In short: as §1
# [37] = biological target: GlcA(b1-6)Gal
# In short: as §1
# [38] = biological target: GlcNAc(a1-3)Gal(b1-4)GlcNAc
# In short: as §1
# [39] = biological target: GlcNAc(a1-4)Gal(b1-3)GlcNAc
# In short: as §1
# [40] = biological target: GlcNAc(a1-4)Gal(b1-4)GalNAc
# In short: as §1
# [41] = biological target: GlcNAc(a1-4)Gal(b1-4)GlcNAc
# In short: as §1
# [42] = biological target: GlcNAc(a1-4)Gal(b1-4)GlcNAc(b1-3)Gal(b1-4)Glc
# In short: as §1
# [43] = biological target: GlcNAc(a1-4)Gal(b1-4)GlcNAc(b1-3)Gal(b1-4)GlcNAc
# In short: as §1
# [44] = biological target: GlcNAc(a1-4)Gal(b1-4)GlcNAc(b1-3)Gal(b1-4)GlcNAc(b1-3)Gal(b1-4)GlcNAc
# In short: as §1
# [45] = biological target: GlcNAc(a1-4)Gal(b1-4)GlcNAc(b1-3)Gal(b1-4)[Fuc(a1-3)]GlcNAc(b1-3)Gal(b1-4)[Fuc(a1-3)]GlcNAc
# In short: as §1
# [46] = biological target: GlcNAc(a1-6)Gal(b1-4)GlcNAc
# In short: as §1
# [47] = biological target: GlcNAc(b1-2)Gal(b1-3)GalNAc
# In short: as §1
# [48] = biological target: GlcNAc(b1-2)Man(a1-3)[GlcNAc(b1-2)Man(a1-6)]Man(b1-4)GlcNAc(b1-4)GlcNAc
# In short: as §1
# [49] = biological target: GlcNAc(b1-2)Man(a1-3)[GlcNAc(b1-2)Man(a1-6)]Man(b1-4)GlcNAc(b1-4)[Fuc(a1-6)]GlcNAc
# In short: as §1
# [50] = biological target: GlcNAc(b1-3)Gal
# In short: as §1
# [51] = biological target: GlcNAc(b1-3)Gal(b1-3)GalNAc
# In short: as §1
# [52] = biological target: GlcNAc(b1-3)Gal(b1-4)Glc
# In short: as §1
# [53] = biological target: GlcNAc(b1-3)Gal(b1-4)GlcNAc
# In short: as §1
# [54] = biological target: GlcNAc(b1-3)Gal(b1-4)GlcNAc(b1-3)Gal(b1-4)GlcNAc
# In short: as §1
# [55] = biological target: GlcNAc(b1-3)GalNAc
# In short: as §1
# [56] = biological target: GlcNAc(b1-3)Man
# In short: as §1
# [57] = biological target: GlcNAc(b1-3)[GlcNAc(b1-4)][GlcNAc(b1-6)]GlcNAc
# In short: as §1
# [58] = biological target: GlcNAc(b1-3)[GlcNAc(b1-6)]Gal(b1-4)GlcNAc
# In short: as §1
# [59] = biological target: GlcNAc(b1-3)[GlcNAc(b1-6)]GalNAc
# In short: as §1
# [60] = biological target: GlcNAc(b1-4)Gal(b1-4)GlcNAc
# In short: as §1
# [61] = biological target: GlcNAc(b1-4)GlcNAc
# In short: as §1
# [62] = biological target: GlcNAc(b1-4)GlcNAc(b1-4)GlcNAc
# In short: as §1
# [63] = biological target: GlcNAc(b1-4)GlcNAc(b1-4)GlcNAc(b1-4)GlcNAc(b1-4)GlcNAc
# In short: as §1
# [64] = biological target: GlcNAc(b1-4)GlcNAc(b1-4)GlcNAc(b1-4)GlcNAc(b1-4)GlcNAc(b1-4)GlcNAc
# In short: as §1
# [65] = biological target: GlcNAc(b1-4)[GlcNAc(b1-6)]GalNAc
# In short: as §1
# [66] = biological target: GlcNAc(b1-6)Gal(b1-4)GlcNAc
# In short: as §1
# [67] = biological target: GlcNAc(b1-6)GalNAc
# In short: as §1
# [68] = biological target: GlcNAc3Prop(b1-4)GlcNAc
# In short: as §1
# [69] = biological target: GlcNAc6S(b1-3)Gal(b1-4)GlcNAc
# In short: as §1
# [70] = biological target: Kdn(a2-3)Gal(b1-3)GalNAc
# In short: as §1
# [71] = biological target: Kdn(a2-3)Gal(b1-3)GlcNAc
# In short: as §1
# [72] = biological target: Kdn(a2-3)Gal(b1-4)Glc
# In short: as §1
# [73] = biological target: Kdn(a2-3)Gal(b1-4)GlcNAc
# In short: as §1
# [74] = biological target: Kdn(a2-3)Gal(b1-4)[Fuc(a1-3)]GlcNAc
# In short: as §1
# [75] = biological target: Kdn(a2-6)Gal(b1-4)GlcNAc
# In short: as §1
binder,measurement,setting,value
B1,glycan array binding signal (z-score),[1],0.467
same,glycan array binding signal (z-score),[2],0.892
same,glycan array binding signal (z-score),[3],-0.368
same,glycan array binding signal (z-score),[4],0.164
same,glycan array binding signal (z-score),[5],-0.38
same,glycan array binding signal (z-score),[6],0.145
same,glycan array binding signal (z-score),[7],1.92
same,glycan array binding signal (z-score),[8],3.35
same,glycan array binding signal (z-score),[9],-0.543
same,glycan array binding signal (z-score),[10],0.48
same,glycan array binding signal (z-score),[11],0.615
same,glycan array binding signal (z-score),[12],2.47
same,glycan array binding signal (z-score),[13],0.789
same,glycan array binding signal (z-score),[14],0.546
same,glycan array binding signal (z-score),[15],0.342
same,glycan array binding signal (z-score),[16],3
same,glycan array binding signal (z-score),[17],0.369
same,glycan array binding signal (z-score),[18],0.697
same,glycan array binding signal (z-score),[19],0.611
same,glycan array binding signal (z-score),[20],2.23
same,glycan array binding signal (z-score),[21],0.573
same,glycan array binding signal (z-score),[22],5.95
same,glycan array binding signal (z-score),[23],0.585
same,glycan array binding signal (z-score),[24],-0.046
same,glycan array binding signal (z-score),[25],1.03
same,glycan array binding signal (z-score),[26],0.96
same,glycan array binding signal (z-score),[27],-0.522
same,glycan array binding signal (z-score),[28],0.965
same,glycan array binding signal (z-score),[29],-0.285
same,glycan array binding signal (z-score),[30],3.5
same,glycan array binding signal (z-score),[31],-0.547
same,glycan array binding signal (z-score),[32],-0.985
same,glycan array binding signal (z-score),[33],-0.481
same,glycan array binding signal (z-score),[34],-0.764
same,glycan array binding signal (z-score),[35],-0.56
same,glycan array binding signal (z-score),[36],-0.632
same,glycan array binding signal (z-score),[37],-0.518
same,glycan array binding signal (z-score),[38],0.137
same,glycan array binding signal (z-score),[39],0.632
same,glycan array binding signal (z-score),[40],-0.513
same,glycan array binding signal (z-score),[41],0.434
same,glycan array binding signal (z-score),[42],0.12
same,glycan array binding signal (z-score),[43],-0.702
same,glycan array binding signal (z-score),[44],1.4
same,glycan array binding signal (z-score),[45],3.22
same,glycan array binding signal (z-score),[46],0.665
same,glycan array binding signal (z-score),[47],-0.732
same,glycan array binding signal (z-score),[48],-0.372
same,glycan array binding signal (z-score),[49],0.524
same,glycan array binding signal (z-score),[50],-1.43
same,glycan array binding signal (z-score),[51],-0.586
same,glycan array binding signal (z-score),[52],-0.332
same,glycan array binding signal (z-score),[53],-0.491
same,glycan array binding signal (z-score),[54],0.044
same,glycan array binding signal (z-score),[55],-0.545
same,glycan array binding signal (z-score),[56],-0.723
same,glycan array binding signal (z-score),[57],-0.255
same,glycan array binding signal (z-score),[58],-0.86
same,glycan array binding signal (z-score),[59],-0.403
same,glycan array binding signal (z-score),[60],0.077
same,glycan array binding signal (z-score),[61],-0.446
same,glycan array binding signal (z-score),[62],-0.594
same,glycan array binding signal (z-score),[63],4.65
same,glycan array binding signal (z-score),[64],0.758
same,glycan array binding signal (z-score),[65],-0.596
same,glycan array binding signal (z-score),[66],-0.144
same,glycan array binding signal (z-score),[67],-0.525
same,glycan array binding signal (z-score),[68],-0.595
same,glycan array binding signal (z-score),[69],-0.759
same,glycan array binding signal (z-score),[70],-0.506
same,glycan array binding signal (z-score),[71],-0.448
same,glycan array binding signal (z-score),[72],-1.04
same,glycan array binding signal (z-score),[73],-0.442
same,glycan array binding signal (z-score),[74],0.055
same,glycan array binding signal (z-score),[75],-0.715

# Quoted at random: 3 records from the list
binder,measurement,setting,value
B1,glycan array binding signal (z-score),[38],0.137
same,glycan array binding signal (z-score),[67],-0.525
same,glycan array binding signal (z-score),[46],0.665

# Nothing new here: entries from further up.
binder,measurement,setting,value
B1,glycan array binding signal (z-score),[14],0.546
same,glycan array binding signal (z-score),[15],0.342

# Source: the supplement of paper PMC8728848
